Some entries share one result that the patent states for a list of compounds. For at least one compound, name, drawing or mass did not settle the structure.
Experiments:
MCF-7 GFP-Rab27B cells [1] = assay: type I collagen invasion assay; assay type: cell-based, human; conditions: 1 μM, 24 hours, MCF-7 GFP-Rab27B cells on type I collagen; P<0.001
Experimental: For the type I collagen invasion assay, the following precooled components were gently combined and defined as type I collagen solution: four volumes of type I collagen (stock is 3.49 mg/mL), five volumes of calcium- and magnesium-free Hank's balanced salt solution, one volume of MEM (10×), one volume of 0.25 M NaHCO3, 2.65 volumes of culture medium and 0.3 volumes of 1 M NaOH. For each test-condition, 1.25 mL of type I collagen solution was added to one well of 6-well plate, homogeneously spread and gelified on a flat surface in a humidified atmosphere of 10% CO2 in air at 37° C. for at least one hour. […]
Cell morphology was studied and invasion was scored after 24 hours (De Wever et al., (44)). […] It was calculated as (perimeter)^2÷(4π area), which describes the deviation of an object from a geometric circle. […] The number of invasive and non-invasive cells was counted in ten randomly selected microscopic fields with a 20× objective and 10× eye piece by two blinded observers using an inverted phase contrast microscope (DMI 3000B, Leica, Wetzlar, Germany). The invasion index was calculated as the ratio of the number of cells that invaded the gel divided by the total number of cells counted in each field. […]

MCF-7 GFP-Rab27B cells [2] = assay: Trypan blue exclusion assays; assay type: cell-based, human; conditions: 1 μM

SMILES	inhibition of invasion (MCF-7 GFP-Rab27B cells [1])	toxicity (MCF-7 GFP-Rab27B cells [2])
C=CCNC1=C2C[C@@H](C)C[C@H](OC)[C@H](O)[C@@H](C)/C=C(\C)[C@H](OC(N)=O)[C@@H](OC)/C=C\C=C(/C)C(=O)NC(=CC1=O)C2=O [17-AAG, 17-(allylamino)-17-demethoxygeldanamycin]	85%-100	less than 1%
COC1=C2C[C@@H](C)C[C@H](OC)[C@H](O)[C@@H](C)/C=C(\C)[C@H](OC(N)=O)[C@@H](OC)/C=C\C=C(/C)C(=O)NC(=CC1=O)C2=O [geldanamycin]		less than 1%

Source: patent publication US9103833B2, “Use of the GTPase Rab27B to diagnose and treat poor prognosis estrogen-receptor-positive breast cancer” (Universiteit Gent, priority 2009, dated 2015)
